Laboratory results reported in patent US10159726B2, “Peptides, combination of peptides and scaffolds for use in immunotherapeutic treatment of various cancers” (Immatics Biotechnologies GmbH, priority 2015, dated 2018).

Legend:
Set-up in all cases: species or system human
[1] = tested on: source genes of selected peptides; assay: Target coverage of source genes in tumor entities based on TCGA Research Network data; details: over-expressed = more than 2-fold above the highest 75% percentile of normal organs; for Target coverage, over-expression category of source gene, BLCA (N = 408): Bladder urothelial carcinoma; for Target coverage, over-expression category of source gene, CESC (N = 307): Cervical squamous cell carcinoma and endocervical adenocarcinoma; for Target coverage, over-expression category of source gene, HNSC (N = 521): Head and neck squamous cell carcinoma; for Target coverage, over-expression category of source gene, DLBC (N = 48): Lymphoid neoplasm diffuse large B-cell lymphoma
[2] = tested on: source genes of selected peptides; assay: Expression profiling of source genes by in-house RNAseq, tumor vs normal tissues (target coverage); details: for Target coverage, over-expression of source gene, AML: AML (N = 7); for Target coverage, over-expression of source gene, AML / Target coverage, over-expression of source gene, BRCA / Target coverage, over-expression of source gene, CLL / Target coverage, over-expression of source gene, CRC / Target coverage, over-expression of source gene, GB / Target coverage, over-expression of source gene, HCC / Target coverage, over-expression of source gene, OC / Target coverage, over-expression of source gene, OSCAR / Target coverage, over-expression of source gene, PC / Target coverage, over-expression of source gene, RCC / Target coverage, over-expression of source gene, SCLC / Target coverage, over-expression of source gene, pNSCLC: in-house RNASeq; for Target coverage, over-expression of source gene, BRCA: BRCA (N = 10); for Target coverage, over-expression of source gene, CLL: CLL (N = 10); for Target coverage, over-expression of source gene, CRC: CRC (N = 20); for Target coverage, over-expression of source gene, GB: GB (N = 24); for Target coverage, over-expression of source gene, HCC: HCC (N = 15); for Target coverage, over-expression of source gene, OC: OC (N = 12); for Target coverage, over-expression of source gene, OSCAR: OSCAR (N = 11); for Target coverage, over-expression of source gene, PC: PC (N = 26); for Target coverage, over-expression of source gene, RCC: RCC (N = 10); for Target coverage, over-expression of source gene, SCLC: SCLC (N = 10); for Target coverage, over-expression of source gene, pNSCLC: pNSCLC (N = 11)
[3] = tested on: HLA-A*24 molecules of primary tumors; assay: Identification and relative LC-MS quantitation of HLA-A*24 tumor-associated peptides presented on tissue samples (XPRESIDENT presentation profiles); details: for ENTITIES: Table 9A: selected HLA-A*24-binding tumor-associated peptides, cancer entities on which the peptide was found presented
[4] = over-expression = more than 1.5-fold vs highest normal tissue
[5] = share of tumors with more than 1.5-fold higher expression than highest relevant normal tissue

| Substance | Target coverage, over-expression category of source gene, BLCA (N = 408) [1] | Target coverage, over-expression category of source gene, CESC (N = 307) [1] | Target coverage, over-expression category of source gene, HNSC (N = 521) [1] | Target coverage, over-expression category of source gene, DLBC (N = 48) [1] | ENTITIES [3] | Target coverage, over-expression of source gene, AML [2, 5] | Target coverage, over-expression of source gene, BRCA [2, 5] | Target coverage, over-expression of source gene, CLL [2, 5] | Target coverage, over-expression of source gene, CRC [2, 5] | Target coverage, over-expression of source gene, GB [2, 5] | Target coverage, over-expression of source gene, HCC [2, 5] | Target coverage, over-expression of source gene, OC [2, 5] | Target coverage, over-expression of source gene, OSCAR [2, 5] | Target coverage, over-expression of source gene, PC [2, 5] | Target coverage, over-expression of source gene, RCC [2, 5] | Target coverage, over-expression of source gene, SCLC [2, 5] | Target coverage, over-expression of source gene, pNSCLC [2, 5] | further results |
| --- | --- | --- | --- | --- | --- | --- | --- | --- | --- | --- | --- | --- | --- | --- | --- | --- | --- | --- |
| 174: peptide found in MMP13 (gene looked up) (VYEKNGYIYF; listed as Homo sapiens) [compound 174] | B (>=20% of tumors above the cutoff, but <50%) | B (>=20% of tumors above the cutoff, but <50%) | A (>=50% of tumors above the cutoff) | C (>=5% of tumors above the cutoff, but <20%) | NSCLC, GB |  |  |  |  |  |  |  |  |  |  |  |  | Target coverage, over-expression category of source gene, MESO (N = 87) ([1]; Mesothelioma): C (>=5% of tumors above the cutoff, but <20%); Target coverage, over-expression of source gene, AML ([2]; over-expression = more than 1.5-fold higher expression on tumor vs highest-expressing relevant normal tissue): I (<19% over-expression = I); Target coverage, over-expression of source gene, BRCA [2, 4]: II (20-49% = II); Target coverage, over-expression of source gene, CLL [2, 4]: I (<19% over-expression = I); Target coverage, over-expression of source gene, CRC [2, 4]: I (<19% over-expression = I); Target coverage, over-expression of source gene, GB [2, 4]: I (<19% over-expression = I); Target coverage, over-expression of source gene, HCC [2, 4]: I (<19% over-expression = I); Target coverage, over-expression of source gene, OC [2, 4]: I (<19% over-expression = I); Target coverage, over-expression of source gene, OSCAR [2, 4]: III (50-69% = III); Target coverage, over-expression of source gene, PC [2, 4]: I (<19% over-expression = I); Target coverage, over-expression of source gene, RCC [2, 4]: I (<19% over-expression = I); Target coverage, over-expression of source gene, SCLC [2, 4]: I (<19% over-expression = I); Target coverage, over-expression of source gene, pNSCLC [2, 4]: II (20-49% = II) |
| 161: peptide found in ICOS (gene looked up) (KYPDIVQQF; listed as Homo sapiens) [compound 161] |  |  |  | C (>=5% of tumors above the cutoff, but <20%) | PCA, HCC, NSCLC, GC |  |  |  |  |  |  |  |  |  |  |  |  | Target coverage for source genes of selected peptides, GBC_CCC (N = 10) ([2]; gallbladder adenocarcinoma and cholangiocarcinoma, share of tumors with more than 1.5-fold higher expression than the highest-expressing relevant normal tissue, in-house RNAseq): I (<19% over-expression = I); Target coverage for source genes of selected peptides, GC (N = 11) ([2]; gastric cancer, share of tumors with more than 1.5-fold higher expression than the highest-expressing relevant normal tissue, in-house RNAseq): I (<19% over-expression = I); Target coverage for source genes of selected peptides, HNSCC (N = 10) ([2]; head and neck small cell carcinoma, share of tumors with more than 1.5-fold higher expression than the highest-expressing relevant normal tissue, in-house RNAseq): I (<19% over-expression = I); Target coverage for source genes of selected peptides, MEL (N = 10) ([2]; melanoma, share of tumors with more than 1.5-fold higher expression than the highest-expressing relevant normal tissue, in-house RNAseq): I (<19% over-expression = I); Target coverage for source genes of selected peptides, NHL (N = 10) ([2]; non-Hodgkin lymphoma, share of tumors with more than 1.5-fold higher expression than the highest-expressing relevant normal tissue, in-house RNAseq): II (20-49% = II); Target coverage for source genes of selected peptides, PCA (n = 10) ([2]; prostate cancer and benign prostate hyperplasia, share of tumors with more than 1.5-fold higher expression than the highest-expressing relevant normal tissue, in-house RNAseq): I (<19% over-expression = I); Target coverage for source genes of selected peptides, UBC (N = 10) ([2]; urinary bladder cancer, share of tumors with more than 1.5-fold higher expression than the highest-expressing relevant normal tissue, in-house RNAseq): I (<19% over-expression = I); Target coverage for source genes of selected peptides, UTC (N = 10) ([2]; uterine cancer, share of tumors with more than 1.5-fold higher expression than the highest-expressing relevant normal tissue, in-house RNAseq): I (<19% over-expression = I) |
| 320: peptide found in AURKA (gene looked up) (KFILALKVLF; listed as Homo sapiens) [compound 320] | B (>=20% of tumors above the cutoff, but <50%) | B (>=20% of tumors above the cutoff, but <50%) | B (>=20% of tumors above the cutoff, but <50%) | B (>=20% of tumors above the cutoff, but <50%) | HCC, NSCLC | I (<19% over-expression = I) | I (<19% over-expression = I) | I (<19% over-expression = I) | I (<19% over-expression = I) | I (<19% over-expression = I) | I (<19% over-expression = I) | I (<19% over-expression = I) | I (<19% over-expression = I) | I (<19% over-expression = I) | I (<19% over-expression = I) | II (20-49% = II) | I (<19% over-expression = I) | Target coverage, over-expression category of source gene, ACC (N = 79) ([1]; Adrenocortical carcinoma): C (>=5% of tumors above the cutoff, but <20%) |
| 198: peptide found in ABCA1 (gene looked up) (DYVGFTLKI; listed as Homo sapiens) [compound 198] |  |  |  |  |  | I (<19% over-expression = I) | I (<19% over-expression = I) | I (<19% over-expression = I) | I (<19% over-expression = I) | III (50-69% = III) | I (<19% over-expression = I) | I (<19% over-expression = I) | I (<19% over-expression = I) | I (<19% over-expression = I) | I (<19% over-expression = I) | I (<19% over-expression = I) | II (20-49% = II) | Target coverage, over-expression category of source gene, LGG (N = 534) ([1]; Lower grade glioma): C (>=5% of tumors above the cutoff, but <20%); Peptide Presentation on cancer entities ([3]; Table 9B: selected HLA-A*24 peptides, presentation on additional cancer entities): NSCLC |

For part of these data: For expression read-outs the peptide stands for its source gene, whose mRNA was measured; the gene is not named for every peptide.
